In article PMC4074974 one finds binding data, which are given here for one molecule.

Results are given in words; binding and its absence hold for the method and conditions named. In cells and extracts the contact can be indirect. Sequences can lack the tags named with a protein.

The target in the experiment is N3-SCML2A WT (FLAG-HA-Twin-Strep-tagged SCML2A) (human), Q9UQR0. Briefly: pull-down; pull-down of epitope-tagged SCML2 from induced 293T-REx; input, flow-through and pull-down blotted for untagged SCML2. Particulars: remark: other sources report otherwise.

B1: SCML2 (endogenous, untagged; isoforms not told apart), Q9UQR0 1-700 (protein)
chain: MGQTVNEDSMDVKKENQEKTPQSSTSSVQRDDFHWEEYLKETGSISAPSECFRQSQIPPVNDFKVGMKLEARDPRNATSVCIATVIGITGARLRLRLDGSDNRNDFWRLVDSPDIQPVGTCEKEGDLLQPPLGYQMNTSSWPMFLLKTLNGSEMASATLFKKEPPKPPLNNFKVGMKLEAIDKKNPYLICPATIGDVKGDEVHITFDGWSGAFDYWCKYDSRDIFPAGWCRLTGDVLQPPGTSVPIVKNIAKTESSPSEASQHSMQSPQKTTLILPTQQVRRSSRIKPPGPTAVPKRSSSVKNITPRKKGPNSGKKEKPLPVICSTSAASLKSLTRDRGMLYKDVASGPCKIVMSTVCVYVNKHGNFGPHLDPKRIQQLPDHFGPGPVNVVLRRIVQACVDCALETKTVFGYLKPDNRGGEVITASFDGETHSIQLPPVNSASFALRFLENFCHSLQCDNLLSSQPFSSSRGHTHSSAEHDKNQSAKEDVTERQSTKRSPQQTVPYVVPLSPKLPKTKEYASEGEPLFAGGSAIPKEENLSEDSKSSSLNSGNYLNPACRNPMYIHTSVSQDFSRSVPGTTSSPLVGDISPKSSPHEVKFQMQRKSEAPSYIAVPDPSVLKQGFSKDPSTWSVDEVIQFMKHTDPQISGPLADLFRQHEIDGKALFLLKSDVMMKYMGLKLGPALKLCYYIEKLKEGKYS
Turning to B1, the binding entry is recorded as “no binding”.
